In patent publication US7655620B2, “Use of one or more metal carriers to selectively kill mammalian cells” (Cancure Laboratories, LLC, priority 2005, dated 2010):
At least one structure is not confirmed: it was looked up by name or label, or the drawing left a doubt.

How the values were obtained:
[1] = system: MB-468 human breast cancer cells; test: Cell death judged from cell morphology (photographs); format: cell-based; settings: PDC 20 μM, cadmium/MT 120 μg/ml, zinc/MT 240 μg/ml, alone or MT+PDC; 8 hours
cancer cells = test: Killing of cancer cells by dithiocarbamates in the absence or presence of cadmium/zinc; format: cell-based; settings: in vitro
Procedure: A large number of dithiocarbamates can be synthesized that, similar to 3-aminopropylpiperidine-1-carbodithioate (CCK3), contain a free amino group. Several of these compounds were synthesized and tested (in the range of 10-50 μM concentration) on cancer cells in the absence or presence of 20 μM CdCl2/ZnCl2 in comparison to CCK3, as follows. […] Similarly, 1-{[(3-aminopropyl)thio]carbonothiol}pyrrolidine-2-carboxilic acid.HCl salt (for structure see FIG. 1) was ineffective both in the absence and presence of cadmium/zinc. The last two compounds may be ineffective because the presence of carboxyl group may interfere with proper binding of cadmium and zinc to the molecule. 3-Aminopropylpyrrolidine-1-carbodithionate. […] From this list, it appears that not every free amino group-containing dithiocarbamate can effectively kill cells in the presence of cadmium and zinc. In some of these cases the metal atom may bind to the dithiocarbamate molecule too strongly (covalently), not allowing dissociation of the metal from the molecule once inside the cell. After comparison of the above compounds with the effects of CCK3, further experiments were principally carried out with PDC and CCK3. […]

[2] = system: T47D human mammary gland ductal carcinoma cells; test: Cell death judged from cell morphology (photographs); format: cell-based; settings: 10 μM PDC, 60 μg/ml cadmium/MT, 240 μg/ml zinc/MT, alone or MT+PDC; 24 h; 10% serum
T47D cells = test: Trypan blue exclusion assay; format: cell-based, human; settings: 10 μM PDC, 60 μg/ml cadmium/MT, 240 μg/ml zinc/MT, alone or MT+PDC; 24 h
[3] = system: MDA-MB-231 human mammary gland adenocarcinoma cells; test: Cell death judged from cell morphology (photographs); format: cell-based; settings: PDC 20 μM, cadmium/MT 120 μg/ml, zinc/MT 240 μg/ml, alone or MT+PDC; 8 hours
Procedure: MDA-MB-231 cells were cultured in Leibovitz's L-15 medium and 10% fetal bovine serum; the medium was changed 2 hours prior to treatments. For the treatments, cells were incubated in triplicate in 12-well plates. A typical experiment with these cells is illustrated in FIG. 3. The cells were untreated (FIG. 3A) or treated with 5 μM CCK3 (FIG. 3B), 10 μM cadmium (FIG. 3C), or 5 μM CCK3+10 μM cadmium (FIG. 3D) for 60 min in 10% serum-containing medium. […] In some experiments, cells were also incubated with [^3H]thymidine (1 μCi/ml) during the last 30 min of treatment to determine DNA synthesis. Cadmium and […] decreased DNA synthesis by 6 and 12%, while in combination they had 100% inhibitory effect.
The cells were cultured as described in Example 4. The cadmium/MT contained 5 cadmium atoms per one MT molecule while zinc/MT contained 5 zinc atoms per one MT molecule. […] Thus, in this cell line cadmium/MT+PDC killed cells more rapidly and efficiently compared to the same amount of zinc/MT+PDC.

For S=C(S)N1CCCC1 [PDC, pyrrolidinecarbodithioic acid, reference compound], the “cell death indicated by cell morphology (FIG. 10 legend)” value [1] was “without effects on cell morphology”, the “induction of cell death in the presence of cadmium or zinc” value (cancer cells) was “killed the cells” and the “cell death indicated by cell morphology” value [2] was “failed to significantly alter cell morphology”. The “cells killed (trypan blue exclusion assay)” value (T47D cells) was “practically no effects on cell death” and the “cell death indicated by cell morphology (FIG. 9 legend)” value [3] was “without effects on cell morphology”.
